Measured values: patent publication US10159655B2, “Agent for inhibiting odor of pyrazine derivatives” (Kao Corporation, priority 2012, dated 2018)
Some of these results come from one statement about several compounds together. At least one compound was matched to its structure with a doubt left.

Target: T1, olfactory receptor OR5K1 (Homo sapiens, UniProt Q8NHB7)
T1 construct: expressed in transfected cells; host or cells: HEK293
T1 sequence (Q8NHB7 1-308): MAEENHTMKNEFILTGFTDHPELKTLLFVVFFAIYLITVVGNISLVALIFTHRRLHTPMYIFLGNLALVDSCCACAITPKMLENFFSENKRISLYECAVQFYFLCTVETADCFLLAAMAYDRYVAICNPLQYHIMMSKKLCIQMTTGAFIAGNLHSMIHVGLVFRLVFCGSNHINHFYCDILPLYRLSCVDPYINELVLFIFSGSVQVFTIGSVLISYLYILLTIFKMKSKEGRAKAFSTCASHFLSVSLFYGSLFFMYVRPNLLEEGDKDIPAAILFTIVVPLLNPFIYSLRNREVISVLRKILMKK
Test: Antagonistic activity against OR5K1: inhibition of the receptor response to 2,6-dimethylpyrazine (luciferase assay, HEK293 cells)
Assay type: cell-based
Conditions: 2,6-dimethylpyrazine 1 mM + test substance 300 μM; cytotoxic flavoring agents re-evaluated at 333 μM 2,6-dimethylpyrazine + 100 μM test substance
Protocol: The receptor response-inhibiting rate of a test substance was calculated as follows. The receptor activity (X-Y) by stimulation with 2,6-dimethylpyrazine alone was determined by subtracting the luminescence value (Y) in cells to which the receptor was introduced but were not stimulated with 2,6-dimethylpyrazine from the luminescence value (X) derived from firefly luciferase induced by stimulation with 2,6-dimethylpyrazine alone. Similarly, the receptor activity (Z-Y) in the presence of a test substance was determined by subtracting the luminescence value (Y) in cells not stimulated with 2,6-dimethylpyrazine from the luminescence value (Z) stimulated with a mixture of 2,6-dimethylpyrazine and the test substance. The reduction rate of the receptor activity (Z-Y) in the presence of a test substance to the receptor activity (X-Y) by stimulation with 2,6-dimethylpyrazine alone was calculated by the following computation expression: Inhibition rate (%)={1−(Z−Y)/(X−Y)}×100, to determine the receptor response-inhibiting rate of the test substance. In the measurement, multiple independent experiments were performed in duplicate, and the average of each experiment was used.

CC(C=O)Cc1ccc2c(c1)OCO2 (stereo not drawn) [α-methyl-3,4-methylenedioxyhydrocinnamic aldehyde]
Inhibition rate (receptor response-inhibiting rate): 40% or more
